From patent US10787483B2 (Agency for Science, Technology and Research, priority 2014, dated 2020) come the findings set out here.

A short description of this series: general procedure: Fmoc solid-phase peptide synthesis; 2-chlorotrityl chloride resin; HBTU, DIPEA. The conditions noted are these: whole synthesis; for isolated yield: scale of the general procedure 0.5 mmol.

Arg-(B-peptoid) compound: the isolated mass stood at 24 mg and the isolated yield was found to be 6.5%.
Bip-Arg-Bip-agmantine registered an isolated mass of 4.1 mg. This substance also returned an isolated yield (overall) of 6% overall yield.
